Results reported in PubChem BioAssay AID504444 (National Center for Advancing Translational Sciences (NCATS), 2011).
Screen size: about 360,000 compounds; about 7,500 (2.1%) were called active. Inconclusive means that the source gave no clear call. Such entries were picked first, then a sample of the others. Calls follow the shape of the dose curve; as a rule, active = well fitted inhibition curve with a large enough effect; inconclusive = small, poorly fitted or top-dose-only effect, or effect the other way; inactive = flat fitted curve, though single readings scatter. Potencies of inconclusive entries are doubtful fits and often do not repeat.

Experiment: Nrf2 qHTS screen for inhibitors; also: nearly all actives have a fitted effect of over 60% in size
Conditions: A549 ARE-Fluc reporter, luciferase luminescence, 18-24 h; activity change, negative = inhibition: at 46 µM (top of the series)
Outline: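 A549 ARE_Fluc cells (5000/well, 5% FBS OPTI-MEM) pre-incubated 2 h, then treated with compounds 18-24 h at 37C/5% CO2 in concentration-response. CellTiter-Fluor viability read first; BugLite luciferase luminescence after 15 min at room temperature gives Nrf2 activity.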
% is scaled to controls: 0 for no effect and ±100 for the full control effect; potency is read from the fitted curve at half-maximal effect.

SMILES	activity change, negative = inhibition	Potency
O=C(C1CCN(S(=O)(=O)c2ccccc2)CC1)N1CCN(Cc2ccccc2)CC1	inactive: -11.4%	
COc1cc2cc(C(=O)N3CCOCC3)cc(-c3ccc(C)cc3)c2cc1OC		active: 18.4 µM
O=C(Nc1ccc(Cl)c(Cl)c1)N1N=CCC1c1ccccc1 (centres undefined)		active: 16.4 µM
CCOC(=O)C1=C(C)Nc2ncnn2C1c1cc(Br)ccc1F (centres undefined)		inconclusive: 18.4 µM [falling, single point]
O=S(=O)(Nc1cccc(Oc2cnccn2)c1)c1ccc(F)cc1	inactive: -2.33%	
CCc1ccc(-n2nc(C)c3c(C(=O)Nc4cccc(C(F)(F)F)c4)cc(C)nc32)cc1		inconclusive: 25.9 µM [falling, single point]
COc1ccc2oc(C(=O)N3CCCc4ccccc43)c(C)c2c1		inconclusive: 25.9 µM [activator, single point]
Cc1cc(Nc2cccc(C(F)(F)F)c2)nc2ccc(NC(=O)c3ccc(N(C)C)cc3)cc12	inactive: -1.33% [at 9.27 µM]	
CCCCCCCCn1c2c(c(=N)c3c1CCC3)CCCC2		active: 9.2 µM
CC(C)C(=O)c1cc2c(cc1NC(=O)c1ccccc1)OCCO2		inconclusive: 29.1 µM [falling, single point]
O=C(Cc1ccc([N+](=O)[O-])cc1)Nc1cccc(C(F)(F)F)c1		inconclusive: 23.1 µM [falling, single point]
CCOc1ccccc1NC(=O)c1c(C)cc(C)nc1SCC(=O)c1cccc(OC)c1		inconclusive: 23.1 µM [falling, partial curve]
COc1ccccc1N1CCN(C(CNC(=O)c2ccco2)c2cccnc2)CC1 (centres undefined)		inconclusive: 16.4 µM [falling, single point]
CCOc1ccc(C(=O)Nc2ccc(N3CCN(C(C)=O)CC3)cc2)cc1[N+](=O)[O-]		inconclusive: 9.2 µM [falling, partial curve, poor fit]
COc1ccccc1OCC(=O)N(Cc1nc(-c2ccc(Cl)cc2)no1)C(C)C	inactive: -20.8%	
CC(=O)OCC(=O)C1(O)CCC2C3CCC4=CC(=O)C=CC4(C)C3(F)C(O)CC21C (centres undefined)		active: 0.0103 µM
Nc1cc(OC(=O)c2ccccc2Br)nn1S(=O)(=O)c1ccccc1		inconclusive: 5.8 µM [falling, partial curve, poor fit]
CC12CCC(C(=O)N(NC(=O)c3cc(Cl)ccc3O)C1=O)C2(C)C (centres undefined)		inconclusive: 0.291 µM [activator, full curve, poor fit]
O=[N+]([O-])c1ccc(C[n+]2cccc3ccccc32)cc1	inactive: -16.4%	
Nc1c(C(=O)NCc2ccco2)nnn1Cc1ccccc1		inconclusive: 6.51 µM [activator, single point]
CSc1ccc(/C=C/C(=O)OCC(=O)c2ccc[nH]2)cc1	inactive: 6.47%	
Cc1ccc(-c2nnc(-c3ccccc3)c(-c3ccccc3)n2)cc1	inactive: -13.7%	

Fetched by compound from the list above:
SMILES	activity change, negative = inhibition	Potency
COc1ccccc1N1CCN(C(CNC(=O)c2ccco2)c2cccnc2)CC1 (centres undefined)		inconclusive: 16.4 µM [falling, single point]
CC(C)C(=O)c1cc2c(cc1NC(=O)c1ccccc1)OCCO2		inconclusive: 29.1 µM [falling, single point]

(further entries)

SMILES	activity change, negative = inhibition	Potency
O=C1CCCN1c1ccc(S(=O)(=O)Nc2cccnc2)cc1	inactive: -7.14%	
COc1ccc(CCNC(=O)c2ccccc2OCc2ccccc2)cc1		inconclusive: 29.1 µM [falling, single point]
CC(C)C(=O)NC(c1ccco1)c1ccc2cccnc2c1O (centres undefined)		inconclusive: 18.4 µM [falling, single point]
CC(C)c1ccc(CN2CCN(C(=O)CSc3nnnn3C3CC3)CC2)cc1		inconclusive: 5.17 µM [falling, full curve]
Cc1ccc(Cl)c(OCC(=O)N2CCc3ccccc3C2)c1		inconclusive: 16.4 µM [activator, partial curve, poor fit]
CN1C(=O)c2ccccc2Sc2ccc(NC(=O)Nc3ccccc3F)cc21		active: 20.6 µM
COc1ccc(-c2cc(C(=O)NCCN3CCOCC3)c3cc(C(C)C)ccc3n2)cc1		inconclusive: 2.31 µM [falling, full curve]
CCCC(=O)OCCNc1cc(SCCC(=O)OC)c2nonc2c1[N+](=O)[O-]	inactive: -6.5%	
Fc1ccc(-c2cc3nc(-c4ccccc4)cc(N4CCOCC4)n3n2)cc1		inconclusive: 0.0731 µM [falling, full curve, poor fit]
COc1ccc(O)c(C(=O)c2cnn(-c3ccc(Cl)cc3)c2)c1	inactive: 3.7%	
CC1CN(/C=C/C=O)C(C)CC1OC(=O)c1ccccc1 (centres undefined)		inconclusive: 6.51 µM [activator, single point]
COc1ccccc1NC(=O)CSc1nnc(-c2ccccc2)o1		inconclusive: 8.2 µM [activator, partial curve]
Cc1cc(C)cc(NC(=O)Cn2nnc3ccccc3c2=O)c1		inconclusive: 4.11 µM [falling, full curve, poor fit]
CC(C)CN(C(=O)c1ccc(=O)n(C)n1)c1c(N)n(Cc2ccccc2)c(=O)[nH]c1=O		inconclusive: 7.31 µM [activator, partial curve, poor fit]
COc1ccc(CN(CCC(c2ccc3c(c2)OCO3)c2ccccc2OC)C(C)=O)cc1 (centres undefined)		inconclusive: 29.1 µM [falling, single point]
CCN(Cc1ccccc1)Cc1cc(OC)cc(OC)c1		inconclusive: 6.51 µM [falling, partial curve, poor fit]
O=C(Cn1cc(SCc2ccc(C(F)(F)F)cc2)c2ccccc21)N1CCCCC1		inconclusive: 32.6 µM [falling, single point]
COc1cccc(C(=O)NC2CCCc3c2cnn3-c2ccc(C)c(C)c2)c1OC (centres undefined)		inconclusive: 29.1 µM [falling, single point]
Cc1cccc(Nc2nnc(-n3nc(C)cc3C)c3ccccc23)c1		inconclusive: 29.1 µM [activator, single point]
N#Cc1cc2c(=O)n3ccccc3nc2n(-c2ccc(Cl)cc2)c1=O		inconclusive: 29.1 µM [activator, partial curve, poor fit]
O=S(=O)(Nc1ccccn1)c1cnc(Cl)c(Br)c1		inconclusive: 23.1 µM [falling, single point]
Cc1ccc(CNC(=O)c2ccc(CS(=O)Cc3ccccc3Cl)o2)cc1 (centres undefined)		inconclusive: 29.1 µM [falling, single point]
